Binding data for 1 substance are collected here from paper PMC11152124.

Chains of the proteins cited; added tags and fusions are not shown.
UniProt O15379: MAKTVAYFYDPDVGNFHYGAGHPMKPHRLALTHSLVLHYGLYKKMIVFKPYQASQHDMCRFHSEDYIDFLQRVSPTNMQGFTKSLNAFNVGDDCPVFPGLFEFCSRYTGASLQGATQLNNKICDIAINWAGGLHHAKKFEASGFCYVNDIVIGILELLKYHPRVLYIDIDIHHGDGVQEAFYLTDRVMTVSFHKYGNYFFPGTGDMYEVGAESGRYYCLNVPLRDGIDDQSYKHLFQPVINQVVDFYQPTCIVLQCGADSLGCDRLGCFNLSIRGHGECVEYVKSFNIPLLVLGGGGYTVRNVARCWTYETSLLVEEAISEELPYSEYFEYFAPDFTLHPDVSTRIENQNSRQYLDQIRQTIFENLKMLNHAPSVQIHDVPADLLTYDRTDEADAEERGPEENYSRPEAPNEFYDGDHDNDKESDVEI
UniProt P49792: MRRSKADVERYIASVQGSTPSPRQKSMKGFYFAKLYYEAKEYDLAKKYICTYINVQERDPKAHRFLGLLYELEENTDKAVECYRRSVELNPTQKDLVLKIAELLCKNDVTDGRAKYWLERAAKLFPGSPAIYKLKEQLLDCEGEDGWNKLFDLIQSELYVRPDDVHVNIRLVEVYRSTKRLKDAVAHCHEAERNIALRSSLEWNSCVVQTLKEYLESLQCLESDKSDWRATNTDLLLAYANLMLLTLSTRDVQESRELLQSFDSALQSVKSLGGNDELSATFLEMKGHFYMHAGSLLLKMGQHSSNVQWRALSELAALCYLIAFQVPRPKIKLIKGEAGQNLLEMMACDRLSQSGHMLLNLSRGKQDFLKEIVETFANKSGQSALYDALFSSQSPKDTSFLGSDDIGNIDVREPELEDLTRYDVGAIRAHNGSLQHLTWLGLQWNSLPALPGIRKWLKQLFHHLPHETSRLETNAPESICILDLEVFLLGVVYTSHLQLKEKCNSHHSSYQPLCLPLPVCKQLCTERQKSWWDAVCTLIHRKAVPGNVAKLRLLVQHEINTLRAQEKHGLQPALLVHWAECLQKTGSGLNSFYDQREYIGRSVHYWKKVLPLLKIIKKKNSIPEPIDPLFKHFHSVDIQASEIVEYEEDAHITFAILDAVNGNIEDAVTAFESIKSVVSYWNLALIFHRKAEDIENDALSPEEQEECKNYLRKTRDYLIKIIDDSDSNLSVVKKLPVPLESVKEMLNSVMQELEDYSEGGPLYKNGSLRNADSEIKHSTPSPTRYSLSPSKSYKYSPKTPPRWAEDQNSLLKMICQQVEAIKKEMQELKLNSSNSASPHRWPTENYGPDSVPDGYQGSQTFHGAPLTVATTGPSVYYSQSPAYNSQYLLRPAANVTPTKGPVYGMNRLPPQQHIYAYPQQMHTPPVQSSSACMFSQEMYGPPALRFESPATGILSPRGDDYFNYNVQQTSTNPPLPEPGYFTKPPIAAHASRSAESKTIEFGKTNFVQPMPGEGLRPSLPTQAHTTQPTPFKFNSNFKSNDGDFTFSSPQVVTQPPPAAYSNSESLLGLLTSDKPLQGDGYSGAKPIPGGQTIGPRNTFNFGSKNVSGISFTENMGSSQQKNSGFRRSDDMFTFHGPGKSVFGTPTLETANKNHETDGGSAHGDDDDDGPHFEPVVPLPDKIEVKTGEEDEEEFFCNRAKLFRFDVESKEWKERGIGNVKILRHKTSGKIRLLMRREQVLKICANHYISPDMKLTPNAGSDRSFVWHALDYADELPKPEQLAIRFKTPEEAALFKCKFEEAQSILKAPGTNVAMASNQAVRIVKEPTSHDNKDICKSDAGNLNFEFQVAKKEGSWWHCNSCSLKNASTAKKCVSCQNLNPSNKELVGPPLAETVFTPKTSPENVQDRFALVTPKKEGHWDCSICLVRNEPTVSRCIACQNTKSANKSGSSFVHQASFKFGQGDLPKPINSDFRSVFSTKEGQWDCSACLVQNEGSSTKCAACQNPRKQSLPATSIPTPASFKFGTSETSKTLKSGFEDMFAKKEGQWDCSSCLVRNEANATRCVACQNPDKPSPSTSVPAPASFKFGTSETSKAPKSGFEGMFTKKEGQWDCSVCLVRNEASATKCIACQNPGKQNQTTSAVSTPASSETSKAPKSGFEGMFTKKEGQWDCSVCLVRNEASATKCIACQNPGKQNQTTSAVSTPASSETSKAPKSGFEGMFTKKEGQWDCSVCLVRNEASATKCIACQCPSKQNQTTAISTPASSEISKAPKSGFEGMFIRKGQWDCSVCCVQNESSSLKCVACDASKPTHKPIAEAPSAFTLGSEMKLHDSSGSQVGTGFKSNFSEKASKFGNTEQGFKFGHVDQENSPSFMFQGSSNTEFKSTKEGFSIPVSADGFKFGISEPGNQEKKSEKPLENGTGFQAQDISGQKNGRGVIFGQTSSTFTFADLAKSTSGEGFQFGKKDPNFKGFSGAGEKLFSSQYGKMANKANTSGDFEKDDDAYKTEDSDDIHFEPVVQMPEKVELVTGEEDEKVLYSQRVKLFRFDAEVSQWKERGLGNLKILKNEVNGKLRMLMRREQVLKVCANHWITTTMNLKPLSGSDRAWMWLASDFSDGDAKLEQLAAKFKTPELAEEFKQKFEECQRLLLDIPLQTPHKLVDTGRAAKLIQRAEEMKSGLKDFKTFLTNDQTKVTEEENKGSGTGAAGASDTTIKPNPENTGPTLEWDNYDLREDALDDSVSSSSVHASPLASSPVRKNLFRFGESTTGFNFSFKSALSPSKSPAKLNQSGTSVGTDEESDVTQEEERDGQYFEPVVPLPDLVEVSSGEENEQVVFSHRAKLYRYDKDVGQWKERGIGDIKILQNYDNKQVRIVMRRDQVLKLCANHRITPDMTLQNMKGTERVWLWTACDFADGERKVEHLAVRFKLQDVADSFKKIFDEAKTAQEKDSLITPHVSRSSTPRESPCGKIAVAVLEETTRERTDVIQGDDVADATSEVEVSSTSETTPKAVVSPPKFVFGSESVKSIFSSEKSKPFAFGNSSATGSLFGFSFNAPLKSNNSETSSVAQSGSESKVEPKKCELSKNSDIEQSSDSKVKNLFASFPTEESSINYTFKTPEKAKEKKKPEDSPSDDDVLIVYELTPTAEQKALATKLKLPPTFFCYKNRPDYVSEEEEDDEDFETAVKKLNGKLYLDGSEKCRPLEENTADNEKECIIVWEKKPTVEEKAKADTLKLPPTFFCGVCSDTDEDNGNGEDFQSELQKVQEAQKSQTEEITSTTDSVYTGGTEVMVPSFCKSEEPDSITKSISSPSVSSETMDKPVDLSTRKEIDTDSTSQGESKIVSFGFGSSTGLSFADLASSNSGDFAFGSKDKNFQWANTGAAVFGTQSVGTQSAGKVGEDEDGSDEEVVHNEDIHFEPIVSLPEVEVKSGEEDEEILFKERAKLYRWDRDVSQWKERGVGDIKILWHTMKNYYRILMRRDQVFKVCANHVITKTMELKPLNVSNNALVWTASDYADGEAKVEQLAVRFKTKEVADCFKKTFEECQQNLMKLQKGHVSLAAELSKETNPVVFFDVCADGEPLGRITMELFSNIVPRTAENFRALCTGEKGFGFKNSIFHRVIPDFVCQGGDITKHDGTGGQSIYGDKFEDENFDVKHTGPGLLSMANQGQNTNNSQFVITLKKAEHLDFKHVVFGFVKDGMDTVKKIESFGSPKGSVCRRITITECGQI

The target in this experiment is histone deacetylase 3 (HDAC3) (human (endogenous in 293T)) (UniProt O15379). Kind of experiment: affinity purification with mass spectrometry; HDAC3 immunoprecipitated from control and Nup358-depleted 293T cells as for the co-IP; on-bead digestion with Trypsin/Lys-C, LC-MS/MS.

Results are given in words; binding and its absence hold for the method and conditions named. Binding seen in cells or lysates may run through a third protein. These calls come from enrichment with a bait or labelling near it, and not all partners need be listed.

Consider “Nup358, also known as RanBP2 (from UniProt P49792 1-3224)”, for which the binding entry is “binds”.
